Test results reported in article PMC11302733 (Microbiology Spectrum, 2024).

Assay: general procedure: Fmoc solid-phase peptide synthesis; rink amide 4-methylbenzhydrylamine resin (0.59 meq/g)
Conditions: whole synthesis, RP-HPLC, Jupiter C18, 214 and 280 nm

| Substance | crude HPLC purity |
| --- | --- |
| ASWKVFLKNIGKAAGKAVLNSVTDMVNQ-NH2 | 33% |
| GFLDIVKGVGKVALGAVSKLF-NH2 | 56% |
| GFLDTLKNIGKTVGRIALNVLT-NH2 | 42% |
| GFLDVIKHVGKAALSVVSHLINE-NH2 | 41% |
| GFLDVLKGVGKAALGAVTHLINQ-NH2 | 85% |
